Assay results as given in the supplement of paper PMC12823440, “Inhibitors supercharge kinase turnover through native proteolytic circuits” (Nature, 2025).
The other results are listed elsewhere or left out. Hit calls seldom repeat between salt and free forms of one compound.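 Kinases were expressed as nanoluciferase fusions in K562 cells and luminescence was read every 4 h between 2 and 18 h as percent of control, DMSO set to 100% and a positive control to 0%. A time point counts as decreased when the signal drops significantly (2 sigma). The hit call is the authors' own, does not follow from the count of time points alone, and its rule is not shown.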

Chains of the proteins cited; added tags and fusions are not shown. Lines headed by an entry give the natural chain unless they say otherwise; changes in a name come on top.
UniProt O75460: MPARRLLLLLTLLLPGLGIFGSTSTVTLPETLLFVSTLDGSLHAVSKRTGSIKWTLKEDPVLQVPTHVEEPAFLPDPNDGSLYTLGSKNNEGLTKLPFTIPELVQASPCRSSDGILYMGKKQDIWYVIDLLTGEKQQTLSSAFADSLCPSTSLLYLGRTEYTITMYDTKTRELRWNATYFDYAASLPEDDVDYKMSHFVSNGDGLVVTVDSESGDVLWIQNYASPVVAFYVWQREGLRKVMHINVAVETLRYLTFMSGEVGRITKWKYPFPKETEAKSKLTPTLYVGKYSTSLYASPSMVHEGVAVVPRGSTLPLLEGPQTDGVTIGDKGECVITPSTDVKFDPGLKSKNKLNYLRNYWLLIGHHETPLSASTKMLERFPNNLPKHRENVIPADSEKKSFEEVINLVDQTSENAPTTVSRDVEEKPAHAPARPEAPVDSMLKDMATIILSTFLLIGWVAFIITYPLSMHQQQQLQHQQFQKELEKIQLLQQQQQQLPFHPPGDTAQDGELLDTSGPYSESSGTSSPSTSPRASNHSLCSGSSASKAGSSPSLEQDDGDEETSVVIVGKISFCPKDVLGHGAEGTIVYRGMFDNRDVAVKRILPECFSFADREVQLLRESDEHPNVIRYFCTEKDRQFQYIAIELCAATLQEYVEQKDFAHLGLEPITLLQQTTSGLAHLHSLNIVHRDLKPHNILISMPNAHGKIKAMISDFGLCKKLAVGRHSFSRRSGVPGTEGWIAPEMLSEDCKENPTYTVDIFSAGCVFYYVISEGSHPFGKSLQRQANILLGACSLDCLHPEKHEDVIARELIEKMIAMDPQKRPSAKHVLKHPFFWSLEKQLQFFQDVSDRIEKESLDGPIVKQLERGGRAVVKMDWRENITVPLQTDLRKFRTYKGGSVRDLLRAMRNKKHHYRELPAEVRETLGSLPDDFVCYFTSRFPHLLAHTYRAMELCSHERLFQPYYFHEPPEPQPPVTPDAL
UniProt P21802, whole entry, looked up: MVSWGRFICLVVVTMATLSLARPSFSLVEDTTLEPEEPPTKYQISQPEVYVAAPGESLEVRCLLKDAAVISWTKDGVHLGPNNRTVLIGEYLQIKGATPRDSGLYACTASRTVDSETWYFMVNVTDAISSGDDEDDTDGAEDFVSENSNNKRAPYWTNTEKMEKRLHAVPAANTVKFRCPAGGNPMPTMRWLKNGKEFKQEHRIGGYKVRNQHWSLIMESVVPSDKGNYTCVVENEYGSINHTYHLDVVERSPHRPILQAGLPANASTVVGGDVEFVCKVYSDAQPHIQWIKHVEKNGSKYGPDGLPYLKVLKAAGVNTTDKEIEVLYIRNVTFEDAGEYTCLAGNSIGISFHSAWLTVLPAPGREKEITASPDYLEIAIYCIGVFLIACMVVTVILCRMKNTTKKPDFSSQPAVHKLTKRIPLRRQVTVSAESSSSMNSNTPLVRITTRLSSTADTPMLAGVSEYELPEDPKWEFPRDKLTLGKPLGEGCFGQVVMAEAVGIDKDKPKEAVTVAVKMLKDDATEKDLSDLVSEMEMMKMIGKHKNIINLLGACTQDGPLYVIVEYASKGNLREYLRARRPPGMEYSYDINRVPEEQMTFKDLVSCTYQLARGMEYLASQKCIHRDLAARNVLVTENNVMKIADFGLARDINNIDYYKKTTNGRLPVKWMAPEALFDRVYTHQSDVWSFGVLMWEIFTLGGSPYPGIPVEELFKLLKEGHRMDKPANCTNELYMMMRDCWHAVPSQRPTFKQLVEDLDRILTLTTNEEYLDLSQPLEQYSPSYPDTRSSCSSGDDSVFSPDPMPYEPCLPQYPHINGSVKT
UniProt P06241, whole entry, looked up: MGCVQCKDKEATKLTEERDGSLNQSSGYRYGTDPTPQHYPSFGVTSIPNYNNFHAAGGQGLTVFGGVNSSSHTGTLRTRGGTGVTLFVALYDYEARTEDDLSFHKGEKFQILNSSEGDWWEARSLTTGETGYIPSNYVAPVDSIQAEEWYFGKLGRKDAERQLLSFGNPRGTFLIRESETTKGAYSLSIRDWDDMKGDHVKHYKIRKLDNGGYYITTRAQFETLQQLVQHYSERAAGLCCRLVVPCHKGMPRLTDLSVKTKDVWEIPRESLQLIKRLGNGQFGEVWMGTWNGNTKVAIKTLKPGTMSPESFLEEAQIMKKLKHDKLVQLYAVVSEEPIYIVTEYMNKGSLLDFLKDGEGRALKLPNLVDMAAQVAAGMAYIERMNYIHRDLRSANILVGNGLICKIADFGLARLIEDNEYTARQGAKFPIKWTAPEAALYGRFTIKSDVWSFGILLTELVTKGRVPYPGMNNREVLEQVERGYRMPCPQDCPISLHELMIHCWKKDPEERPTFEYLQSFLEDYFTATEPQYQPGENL
UniProt P49840: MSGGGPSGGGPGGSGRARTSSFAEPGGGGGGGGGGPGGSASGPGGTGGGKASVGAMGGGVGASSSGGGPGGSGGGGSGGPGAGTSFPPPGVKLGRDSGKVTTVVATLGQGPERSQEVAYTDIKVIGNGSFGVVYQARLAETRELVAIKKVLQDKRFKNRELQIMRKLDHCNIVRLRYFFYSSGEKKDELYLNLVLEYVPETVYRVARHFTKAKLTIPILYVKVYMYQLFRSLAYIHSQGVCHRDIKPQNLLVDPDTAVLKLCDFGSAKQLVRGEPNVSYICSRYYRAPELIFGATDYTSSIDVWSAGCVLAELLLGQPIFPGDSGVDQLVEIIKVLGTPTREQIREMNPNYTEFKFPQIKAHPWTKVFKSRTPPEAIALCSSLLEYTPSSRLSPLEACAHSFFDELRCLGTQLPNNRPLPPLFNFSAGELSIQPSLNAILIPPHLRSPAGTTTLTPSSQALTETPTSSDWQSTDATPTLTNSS
UniProt P53667: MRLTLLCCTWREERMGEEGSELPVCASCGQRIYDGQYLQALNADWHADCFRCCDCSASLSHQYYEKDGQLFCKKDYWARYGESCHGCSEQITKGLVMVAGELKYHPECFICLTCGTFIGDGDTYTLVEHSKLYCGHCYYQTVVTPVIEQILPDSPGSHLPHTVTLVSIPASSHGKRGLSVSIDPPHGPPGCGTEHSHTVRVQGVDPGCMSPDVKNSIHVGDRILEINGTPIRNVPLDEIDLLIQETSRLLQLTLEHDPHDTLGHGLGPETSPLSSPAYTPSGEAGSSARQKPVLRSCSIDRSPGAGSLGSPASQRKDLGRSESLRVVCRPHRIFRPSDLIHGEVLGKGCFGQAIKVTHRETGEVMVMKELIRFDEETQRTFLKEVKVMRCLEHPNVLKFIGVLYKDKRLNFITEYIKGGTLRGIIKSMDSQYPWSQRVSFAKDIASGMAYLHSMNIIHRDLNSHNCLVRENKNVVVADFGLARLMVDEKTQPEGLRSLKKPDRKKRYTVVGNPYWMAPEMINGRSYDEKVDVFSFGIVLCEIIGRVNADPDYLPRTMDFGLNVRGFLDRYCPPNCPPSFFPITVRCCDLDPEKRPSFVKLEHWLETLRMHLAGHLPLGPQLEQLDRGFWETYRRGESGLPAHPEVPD
UniProt P53671: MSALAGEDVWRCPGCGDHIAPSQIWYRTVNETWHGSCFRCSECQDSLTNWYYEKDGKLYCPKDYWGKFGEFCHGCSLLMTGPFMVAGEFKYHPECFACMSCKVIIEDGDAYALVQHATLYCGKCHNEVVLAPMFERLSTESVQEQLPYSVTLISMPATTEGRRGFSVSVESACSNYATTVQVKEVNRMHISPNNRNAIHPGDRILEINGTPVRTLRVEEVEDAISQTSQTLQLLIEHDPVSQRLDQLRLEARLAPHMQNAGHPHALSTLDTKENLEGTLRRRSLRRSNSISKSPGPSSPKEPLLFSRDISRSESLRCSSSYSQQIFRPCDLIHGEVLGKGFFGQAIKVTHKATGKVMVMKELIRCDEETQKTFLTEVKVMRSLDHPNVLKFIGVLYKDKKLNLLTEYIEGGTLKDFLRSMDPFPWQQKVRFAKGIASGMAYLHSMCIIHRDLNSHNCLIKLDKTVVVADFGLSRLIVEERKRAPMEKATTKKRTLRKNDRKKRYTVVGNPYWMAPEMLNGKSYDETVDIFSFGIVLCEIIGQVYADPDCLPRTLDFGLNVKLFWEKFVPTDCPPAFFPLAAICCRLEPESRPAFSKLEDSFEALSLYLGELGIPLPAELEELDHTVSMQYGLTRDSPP
UniProt Q8IWU2: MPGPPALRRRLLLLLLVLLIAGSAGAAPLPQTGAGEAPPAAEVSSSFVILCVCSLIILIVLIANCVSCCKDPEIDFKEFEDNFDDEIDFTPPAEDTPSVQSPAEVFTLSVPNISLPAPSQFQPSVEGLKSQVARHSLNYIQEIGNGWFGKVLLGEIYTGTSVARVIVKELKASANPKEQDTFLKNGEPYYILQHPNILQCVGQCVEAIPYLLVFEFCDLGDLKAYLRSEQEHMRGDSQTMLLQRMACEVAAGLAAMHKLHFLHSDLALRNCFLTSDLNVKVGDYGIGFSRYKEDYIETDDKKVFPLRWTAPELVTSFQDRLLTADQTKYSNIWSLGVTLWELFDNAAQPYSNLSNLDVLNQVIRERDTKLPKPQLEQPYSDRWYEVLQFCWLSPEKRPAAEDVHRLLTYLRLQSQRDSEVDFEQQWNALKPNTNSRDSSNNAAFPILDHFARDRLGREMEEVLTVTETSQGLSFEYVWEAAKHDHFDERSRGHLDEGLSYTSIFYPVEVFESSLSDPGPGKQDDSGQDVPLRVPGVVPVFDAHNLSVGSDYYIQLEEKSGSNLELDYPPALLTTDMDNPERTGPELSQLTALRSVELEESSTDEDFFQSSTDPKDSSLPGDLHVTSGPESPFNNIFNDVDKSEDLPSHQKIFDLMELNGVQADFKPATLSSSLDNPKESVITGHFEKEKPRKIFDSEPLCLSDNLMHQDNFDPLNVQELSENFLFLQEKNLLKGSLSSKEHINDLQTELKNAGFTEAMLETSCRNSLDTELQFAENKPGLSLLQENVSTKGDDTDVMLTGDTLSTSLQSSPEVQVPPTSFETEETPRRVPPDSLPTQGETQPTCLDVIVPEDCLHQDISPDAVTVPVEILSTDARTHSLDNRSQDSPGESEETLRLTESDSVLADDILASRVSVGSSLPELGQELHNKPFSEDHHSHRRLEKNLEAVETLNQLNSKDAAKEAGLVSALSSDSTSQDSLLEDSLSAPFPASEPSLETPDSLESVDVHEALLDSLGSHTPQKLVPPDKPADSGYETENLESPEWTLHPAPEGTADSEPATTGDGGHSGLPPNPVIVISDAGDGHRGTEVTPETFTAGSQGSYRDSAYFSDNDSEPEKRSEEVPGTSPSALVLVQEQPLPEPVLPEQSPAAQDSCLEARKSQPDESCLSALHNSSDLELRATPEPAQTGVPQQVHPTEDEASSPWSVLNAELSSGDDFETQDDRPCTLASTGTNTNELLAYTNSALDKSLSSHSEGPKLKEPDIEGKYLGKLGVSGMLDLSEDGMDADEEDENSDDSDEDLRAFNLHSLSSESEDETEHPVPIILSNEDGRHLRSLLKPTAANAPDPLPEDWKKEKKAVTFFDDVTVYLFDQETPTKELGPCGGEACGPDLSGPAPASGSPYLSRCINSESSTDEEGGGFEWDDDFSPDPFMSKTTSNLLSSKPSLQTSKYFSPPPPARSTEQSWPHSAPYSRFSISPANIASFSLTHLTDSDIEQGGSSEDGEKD
UniProt Q12851: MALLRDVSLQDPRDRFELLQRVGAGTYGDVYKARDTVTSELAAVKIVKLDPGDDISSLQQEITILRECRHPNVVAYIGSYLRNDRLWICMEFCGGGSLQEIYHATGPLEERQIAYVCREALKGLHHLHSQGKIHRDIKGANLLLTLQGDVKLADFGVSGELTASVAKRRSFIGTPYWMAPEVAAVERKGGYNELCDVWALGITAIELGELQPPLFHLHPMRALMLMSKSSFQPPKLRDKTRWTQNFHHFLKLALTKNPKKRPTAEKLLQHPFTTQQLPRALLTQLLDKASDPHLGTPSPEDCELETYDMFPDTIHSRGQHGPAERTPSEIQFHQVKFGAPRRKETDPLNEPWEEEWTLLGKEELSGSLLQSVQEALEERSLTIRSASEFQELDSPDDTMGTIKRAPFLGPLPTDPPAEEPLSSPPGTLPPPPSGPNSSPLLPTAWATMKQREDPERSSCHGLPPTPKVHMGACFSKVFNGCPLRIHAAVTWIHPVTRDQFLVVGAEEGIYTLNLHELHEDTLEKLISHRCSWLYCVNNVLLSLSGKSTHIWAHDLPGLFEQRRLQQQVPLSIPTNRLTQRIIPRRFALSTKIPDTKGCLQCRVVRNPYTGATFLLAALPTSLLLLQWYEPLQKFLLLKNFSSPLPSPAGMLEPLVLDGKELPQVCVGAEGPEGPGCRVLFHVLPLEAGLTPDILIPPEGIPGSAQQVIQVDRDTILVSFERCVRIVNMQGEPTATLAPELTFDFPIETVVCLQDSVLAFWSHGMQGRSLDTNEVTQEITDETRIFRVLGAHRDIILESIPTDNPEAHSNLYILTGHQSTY

Legend:
Test in all cases: kinase-Nluc reporter destabilization hit call (1 = scored as downregulated) (binary); higher = compound decreases kinase abundance
Details in all cases: K562; 2-18 h
ERN1 = ERN1 (UniProt O75460)
FGFR1 = FGFR1 (UniProt P11362)
FGFR2 = FGFR2 (UniProt P21802)
FGFR3 = FGFR3 (UniProt P22607)
FGR = FGR (UniProt P09769)
FLT3 = FLT3 (UniProt P36888)
FYN = FYN (UniProt P06241)
GSK3A = GSK3A (UniProt P49840)
HER2 = HER2 (UniProt P04626)
INSRR = INSRR (UniProt P14616)
IRAK3 = IRAK3 (UniProt Q9Y616)
JAK1 = JAK1 (UniProt P23458)
LCK = LCK (UniProt P06239)
LIMK1 = LIMK1 (UniProt P53667)
LIMK2 = LIMK2 (UniProt P53671)
LMTK2 = LMTK2 (UniProt Q8IWU2)
LYN = LYN (UniProt P07948)
MAP2K1 = MAP2K1 (UniProt Q02750)
MAP2K2 = MAP2K2 (UniProt P36507)
MAP4K2 = MAP4K2 (UniProt Q12851)

Structure (SMILES) | kinase-Nluc reporter destabilization hit call (ERN1) | kinase-Nluc reporter destabilization hit call (FGFR1) | kinase-Nluc reporter destabilization hit call (FGFR2) | kinase-Nluc reporter destabilization hit call (FGFR3) | kinase-Nluc reporter destabilization hit call (FGR) | kinase-Nluc reporter destabilization hit call (FLT3) | kinase-Nluc reporter destabilization hit call (FYN) | kinase-Nluc reporter destabilization hit call (GSK3A) | kinase-Nluc reporter destabilization hit call (HER2) | kinase-Nluc reporter destabilization hit call (INSRR) | kinase-Nluc reporter destabilization hit call (IRAK3) | kinase-Nluc reporter destabilization hit call (JAK1) | kinase-Nluc reporter destabilization hit call (LCK) | kinase-Nluc reporter destabilization hit call (LIMK1) | kinase-Nluc reporter destabilization hit call (LIMK2) | kinase-Nluc reporter destabilization hit call (LMTK2) | kinase-Nluc reporter destabilization hit call (LYN) | kinase-Nluc reporter destabilization hit call (MAP2K1) | kinase-Nluc reporter destabilization hit call (MAP2K2) | kinase-Nluc reporter destabilization hit call (MAP4K2)
O=S(=O)(c1cccc2c(Cl)cccc12)N1CCCNCC1 (10 µM) | inactive: 0 | inactive: 0 | inactive: 0 | inactive: 0 | inactive: 0 | inactive: 0 | inactive: 0 | inactive: 0 | inactive: 0 | inactive: 0 | inactive: 0 | inactive: 0 | inactive: 0 | inactive: 0 | inactive: 0 | inactive: 0 | inactive: 0 | inactive: 0 | inactive: 0 | inactive: 0
COc1ccc(-c2cnc3c(-c4cccc5ncccc45)cnn3c2)cc1 (10 µM) | inactive: 0 | inactive: 0 | inactive: 0 | inactive: 0 | inactive: 0 | inactive: 0 | inactive: 0 | inactive: 0 | inactive: 0 | inactive: 0 | inactive: 0 | inactive: 0 | inactive: 0 | inactive: 0 | inactive: 0 | inactive: 0 | inactive: 0 | inactive: 0 | inactive: 0 | inactive: 0
CC(C)(C)c1ccc(C(=O)Nc2cn3cc(-n4ccnc4)ccc3n2)cc1 (10 µM) | inactive: 0 | inactive: 0 | inactive: 0 | inactive: 0 | inactive: 0 | inactive: 0 | inactive: 0 | inactive: 0 | inactive: 0 | inactive: 0 | inactive: 0 | inactive: 0 | inactive: 0 | inactive: 0 | inactive: 0 | inactive: 0 | inactive: 0 | inactive: 0 | inactive: 0 | inactive: 0
Clc1ccc(Nc2cccc(-c3cn[nH]c3)c2)cc1 (10 µM) | inactive: 0 | inactive: 0 | inactive: 0 | inactive: 0 | inactive: 0 | inactive: 0 | inactive: 0 | inactive: 0 | inactive: 0 | inactive: 0 | inactive: 0 | inactive: 0 | inactive: 0 | inactive: 0 | inactive: 0 | inactive: 0 | inactive: 0 | inactive: 0 | inactive: 0 | inactive: 0
CNS(=O)(=O)C[C@H]1CC[C@H](N(C)c2[nH]cnc3nccc2-3)CC1 [Oclacitinib (maleate)] (10 µM) | inactive: 0 | inactive: 0 | inactive: 0 | inactive: 0 | inactive: 0 | inactive: 0 | inactive: 0 | inactive: 0 | inactive: 0 | inactive: 0 | inactive: 0 | inactive: 0 | inactive: 0 | inactive: 0 | inactive: 0 | inactive: 0 | inactive: 0 | inactive: 0 | inactive: 0 | inactive: 0
CCOc1cc(C(=O)N2CCC(N3CCN(C)CC3)CC2)ccc1Nc1ncc2c(n1)N(S(C)(=O)=O)c1ccccc1C(=O)N2C (10 µM) | inactive: 0 | inactive: 0 | inactive: 0 | inactive: 0 | inactive: 0 | inactive: 0 | inactive: 0 | inactive: 0 | inactive: 0 | inactive: 0 | inactive: 0 | inactive: 0 | inactive: 0 | inactive: 0 | inactive: 0 | inactive: 0 | inactive: 0 | inactive: 0 | inactive: 0 | inactive: 0
CC(C)=CCC/C(C)=C/CC/C(C)=C/CSc1ccccc1C(=O)O [Salirasib] (10 µM) | inactive: 0 | inactive: 0 | inactive: 0 | inactive: 0 | inactive: 0 | inactive: 0 | inactive: 0 | inactive: 0 | inactive: 0 | inactive: 0 | inactive: 0 | inactive: 0 | inactive: 0 | inactive: 0 | inactive: 0 | inactive: 0 | inactive: 0 | inactive: 0 | inactive: 0 | inactive: 0
Cc1ncc(F)c(Nc2n[nH]c3c2CN(C(=O)N2C[C@@H](C)N(CC4CCOCC4)C[C@@H]2C)C3(C)C)n1 (10 µM) | inactive: 0 | inactive: 0 | inactive: 0 | inactive: 0 | inactive: 0 | inactive: 0 | inactive: 0 | inactive: 0 | inactive: 0 | inactive: 0 | inactive: 0 | inactive: 0 | inactive: 0 | inactive: 0 | inactive: 0 | inactive: 0 | inactive: 0 | inactive: 0 | inactive: 0 | inactive: 0
CCN1C(C)(C)CC(Oc2ccc(C(=O)Nc3ccc(NC(=O)Nc4cc(C(C)(C)C)on4)cc3)nc2)CC1(C)C (10 µM) | inactive: 0 | inactive: 0 | inactive: 0 | inactive: 0 | inactive: 0 | inactive: 0 | inactive: 0 | inactive: 0 | inactive: 0 | inactive: 0 | inactive: 0 | inactive: 0 | inactive: 0 | inactive: 0 | inactive: 0 | inactive: 0 | inactive: 0 | inactive: 0 | inactive: 0 | inactive: 0
O=c1cc(N2CCOCC2)oc2c1ccc1ccccc12 (2 µM) | inactive: 0 | inactive: 0 | inactive: 0 | inactive: 0 | inactive: 0 | inactive: 0 | inactive: 0 | inactive: 0 | inactive: 0 | inactive: 0 | inactive: 0 | inactive: 0 | inactive: 0 | inactive: 0 | inactive: 0 | inactive: 0 | inactive: 0 | inactive: 0 | inactive: 0 | inactive: 0
Nc1n[nH]c(N)c1N=Nc1ccc(O)cc1 (10 µM) | inactive: 0 | inactive: 0 | inactive: 0 | inactive: 0 | inactive: 0 | inactive: 0 | inactive: 0 | inactive: 0 | inactive: 0 | inactive: 0 | inactive: 0 | inactive: 0 | inactive: 0 | inactive: 0 | inactive: 0 | inactive: 0 | inactive: 0 | inactive: 0 | inactive: 0 | inactive: 0
C=CC(=O)Nc1cccc(Oc2nc(Nc3ccc(N4CCN(C)CC4)cc3)ncc2Cl)c1 (2.5 µM) | inactive: 0 | inactive: 0 | inactive: 0 | inactive: 0 | inactive: 0 | inactive: 0 | inactive: 0 | inactive: 0 | active: 1 | inactive: 0 | inactive: 0 | inactive: 0 | inactive: 0 | inactive: 0 | inactive: 0 | inactive: 0 | inactive: 0 | inactive: 0 | inactive: 0 | inactive: 0
CC(C)(O)c1cc2nc(-c3cnc(N)nc3)nc(N3CCOCC3)c2s1 (2.5 µM) | inactive: 0 | inactive: 0 | inactive: 0 | inactive: 0 | inactive: 0 | inactive: 0 | inactive: 0 | inactive: 0 | inactive: 0 | inactive: 0 | inactive: 0 | inactive: 0 | inactive: 0 | inactive: 0 | inactive: 0 | inactive: 0 | inactive: 0 | inactive: 0 | inactive: 0 | inactive: 0
CC(C)(C)S(=O)(=O)c1cc2c(Nc3ccc4scnc4c3)ccnc2cc1OCCOCCOCCOCCOCC(=O)Nc1cccc2c1CN(C1CCC(=O)NC1=O)C2=O (stereo not given) [PROTAC RIPK degrader-6] (10 µM) | inactive: 0 | inactive: 0 | inactive: 0 | inactive: 0 | inactive: 0 | inactive: 0 | inactive: 0 | inactive: 0 | inactive: 0 | inactive: 0 | inactive: 0 | inactive: 0 | inactive: 0 | inactive: 0 | inactive: 0 | inactive: 0 | inactive: 0 | inactive: 0 | inactive: 0 | inactive: 0
C[C@@]12CCc3occc3[C@H]1CC[C@@]13C[C@@H](CC[C@H]12)[C@@](O)(CO)C3 [Cafestol] (10 µM) | inactive: 0 | inactive: 0 | inactive: 0 | inactive: 0 | inactive: 0 | inactive: 0 | inactive: 0 | inactive: 0 | inactive: 0 | inactive: 0 | inactive: 0 | inactive: 0 | inactive: 0 | inactive: 0 | inactive: 0 | inactive: 0 | inactive: 0 | inactive: 0 | inactive: 0 | inactive: 0
CN1CCC(c2ccccc2CC(C)(C)Nc2nc(N3CCOCC3)nc(-n3c(S(C)(=O)=O)nc4ccccc43)n2)CC1 (10 µM) | inactive: 0 | inactive: 0 | inactive: 0 | inactive: 0 | inactive: 0 | inactive: 0 | inactive: 0 | inactive: 0 | inactive: 0 | inactive: 0 | inactive: 0 | inactive: 0 | inactive: 0 | inactive: 0 | inactive: 0 | inactive: 0 | inactive: 0 | inactive: 0 | inactive: 0 | inactive: 0
C[C@@H]1CN(CC(=O)Nc2ccc3c(c2)Cc2cccc(-c4cc(=O)cc(N5CCOCC5)o4)c2S3)C[C@H](C)O1 (2.5 µM) | inactive: 0 | inactive: 0 | inactive: 0 | inactive: 0 | inactive: 0 | inactive: 0 | inactive: 0 | inactive: 0 | inactive: 0 | inactive: 0 | inactive: 0 | inactive: 0 | inactive: 0 | inactive: 0 | inactive: 0 | inactive: 0 | inactive: 0 | inactive: 0 | inactive: 0 | inactive: 0

Single values from the list.
Under kinase-Nluc reporter destabilization hit call (INSRR), `O=S(=O)(c1cccc2c(Cl)cccc12)N1CCCNCC1` (10 µM) shows inactive: 0
Under kinase-Nluc reporter destabilization hit call (INSRR), `C=CC(=O)Nc1cccc(Oc2nc(Nc3ccc(N4CCN(C)CC4)cc3)ncc2Cl)c1` (2.5 µM) shows inactive: 0
